From patent publication US20130309252A1
These are yes or no findings as the source states them, for the method shown. Some entries that bind do so weakly or less than the wild type.

Legend:
[1] = target: GST-PDZI′+II′ recombinant Grasp55 protein (murine); assay: HTRF, biotinylated peptide and GST fusion
[2] = target: GST-PDZI′ recombinant Grasp55 protein (murine); assay: HTRF, biotinylated peptide and GST fusion
[3] = target: GST-GRASP55 PDZ I+II (murine); assay: ELISA, GST fusion on glutathione plate, biotinylated peptide, streptavidin-HRP

Measured: binding

B1: biotinylated peptide corresponding to the last 19 amino-acids of JAM-C (peptide)
peptide: NYIRTSEEGDFRHKSSFVI
modifications: biotinylated (position not given)
binds: [1] | [2] | [3]
